Measured values from the supplement of paper PMC7411640.
Structures can show the parent of a compound that is named as a salt. The list shows a part of the results. This data set is noisy: repeats of one test often differ as much as different tests do.

System: MDA-MB-468
Assay: phospho-S6 immunofluorescence (DAPI-normalised), per-plate z-score; higher = higher phospho-S6 signal (less pathway suppression)
Conditions: 24 h
Protocol: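 GPCR-targeted compound library (MedChemExpress HY-L006) tested on MDA-MB-468 PTEN-null TNBC cells in 384-well plates at 0.1, 1 or 10 uM, combined with vehicle, GDC0941 450 nM or lapatinib 1 uM, for 24 h. Phospho-S6 (S240/244) immunofluorescence normalised to DAPI and expressed as a per-plate z-score; values are the mean of biological triplicates.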

[1] = compound 0.1 µM, co-treatment: GDC0941 450 nM
[2] = compound 0.1 µM, co-treatment: lapatinib 1 uM
[3] = compound 0.1 µM, co-treatment: vehicle
[4] = compound 1 µM, co-treatment: GDC0941 450 nM
[5] = compound 1 µM, co-treatment: lapatinib 1 uM
[6] = compound 1 µM, co-treatment: vehicle
[7] = compound 10 µM, co-treatment: GDC0941 450 nM
[8] = compound 10 µM, co-treatment: lapatinib 1 uM
[9] = compound 10 µM, co-treatment: vehicle

Compound	phospho-S6 immunofluorescence (z-score) [1]	phospho-S6 immunofluorescence (z-score) [2]	phospho-S6 immunofluorescence (z-score) [3]	phospho-S6 immunofluorescence (z-score) [4]	phospho-S6 immunofluorescence (z-score) [5]	phospho-S6 immunofluorescence (z-score) [6]	phospho-S6 immunofluorescence (z-score) [7]	phospho-S6 immunofluorescence (z-score) [8]	phospho-S6 immunofluorescence (z-score) [9]
O=C(O)CCCN1CCC(O[C@@H](c2ccc(Cl)cc2)c2ccccn2)CC1 [Bepotastine (Beslilate)]	-1.04	0.33	0.13	-0.66	-0.61	0	-0.72	-0.17	0.56
CNS(=O)(=O)CCc1ccc2[nH]cc(C3CCN(C)CC3)c2c1 [Naratriptan (hydrochloride)]	0.04	-0.67	-0.49	-0.04	-1.02	-0.81	-0.23	0.4	0.18
CSc1ccc2c(c1)N(CCC1CCCCN1C)c1ccccc1S2 (stereo not given) [Thioridazine (hydrochloride)]	1.03	0.66	-0.82	1.54	-0.06	-0.18	-5.09	-8.27	-7.88
CC(C)(C)NCC(O)c1ccc(O)c(CO)c1 (stereo not given) [Salbutamol (hemisulfate)]	1.12	1.28	1.2	0.2	0.54	0.93	0.44	1.46	0.8
CCOc1cc(N)c(Cl)cc1C(=O)NCC1CN(Cc2ccc(F)cc2)CCO1 (stereo not given) [Mosapride (citrate)]	0.57	0.53	0.59	0.37	-1.07	0.97	0.76	0.46	0.79
CCCCC(=O)N(Cc1ccc(-c2ccccc2-c2nnn[nH]2)cc1)[C@H](C(=O)O)C(C)C.CCOC(=O)[C@H](C)C[C@@H](Cc1ccc(-c2ccccc2)cc1)NC(=O)CCC(=O)O	1.2	-0.78	-1.08	1.05	-0.42	-0.07	0.23	0.37	0.21
CN1[C@@H]2CC[C@H]1C[C@@H](OC(=O)c1c[nH]c3ccccc13)C2 [Tropisetron]	-0.46	0.03	-0.5	0.32	0.72	0.77	0.73	1.44	0.31
CCCCCNC(=N)N/N=C/c1c[nH]c2ccc(OC)cc12 [Tegaserod (maleate)]	-0.79	0.24	0.22	-2.2	-1.29	0.59	-6	-12.1	-10.3
OC(CNCC(O)C1CCc2cc(F)ccc2O1)C1CCc2cc(F)ccc2O1 (stereo not given) [Nebivolol (hydrochloride)]	-0.98	-1.23	-0.74	-0.53	-1.32	-0.19	-2.5	-3.76	-2.22
CN(C)CC/C=C1/c2ccccc2Sc2ccc(Cl)cc21 [Chlorprothixene]	-0.56	-0.06	-1.61	0	-0.97	-0.07	0.1	-3.66	0.41
CN(C)CCc1c[nH]c2ccc(Cn3cncn3)cc12 [Rizatriptan (benzoate)]	-0.98	0.17	0.21	-1.44	-0.44	-1.13	-1.62	0.19	-1.1
O=C(NC(Cc1cc(=O)[nH]c2ccccc12)C(=O)O)c1ccc(Cl)cc1 (stereo not given) [Rebamipide]	0.03	0.23	0.18	0.33	0.32	-2.45	0.69	1.1	0.16
O=C(N[C@@H]1CC[C@@H](c2cccc(F)c2F)CN(CC(F)(F)F)C1=O)N1CCC(n2c(=O)[nH]c3ncccc32)CC1	-0.51	0.42	-0.58	-0.66	0.86	-0.01	0.18	0.53	-0.42
CNC(=O)[C@H]1O[C@@H](n2cnc3c(NCc4cccc(I)c4)nc(Cl)nc32)[C@H](O)[C@@H]1O	-2.47	-1.3	-2.32	-1.44	-0.1	-2.08	-1.27	-1.18	-2.34
CC1CCN(CC[C@H]2CCCN2S(=O)(=O)c2cccc(O)c2)CC1	0.56	1.21	0.14	0.5	-1.11	-0.69	0.86	0.2	0.48
O=C(c1ccc(F)cc1)C1CCN(CCn2c(=O)[nH]c3ccccc3c2=O)CC1 [Ketanserin]	-1	-0.95	0.55	-0.53	-0.24	0.55	-0.64	-0.02	-0.85
C[C@]12C=CC(=O)C=C1CC[C@@H]1[C@@H]2C(=O)C[C@@]2(C)[C@H]1CC[C@]2(O)C(=O)CO [Prednisone]	1.07	0.63	0.78	0.49	0.88	0.58	0.55	1.24	0.94
Cc1ccc(C)c(OCCn2cc(C(=O)O)c3ccccc32)c1	-0.38	-0.88	-0.56	-0.7	0.35	-1.72	0.61	-0.34	-0.21
COc1ccc(-c2oc3c(CC=C(C)C)c(O)cc(O)c3c(=O)c2O[C@@H]2O[C@@H](C)[C@H](O)[C@@H](O)[C@H]2O)cc1 [Baohuoside I]	1.28	0.33	1.12	-0.81	0.41	1.76	-5.72	-5.94	-7.08
COCCCN1CCC(NC(=O)c2cc(Cl)c(N)c3c2OCC3)CC1 [Prucalopride (succinate)]	-1.12	-1.06	-0.84	-0.88	-1.12	-1.12	-1.08	-0.3	-1.84

Random excerpt: 2 records from the list, in no set order.
Compound	phospho-S6 immunofluorescence (z-score) [1]	phospho-S6 immunofluorescence (z-score) [2]	phospho-S6 immunofluorescence (z-score) [3]	phospho-S6 immunofluorescence (z-score) [4]	phospho-S6 immunofluorescence (z-score) [5]	phospho-S6 immunofluorescence (z-score) [6]	phospho-S6 immunofluorescence (z-score) [7]	phospho-S6 immunofluorescence (z-score) [8]	phospho-S6 immunofluorescence (z-score) [9]
O=C(N[C@@H]1CC[C@@H](c2cccc(F)c2F)CN(CC(F)(F)F)C1=O)N1CCC(n2c(=O)[nH]c3ncccc32)CC1	-0.51	0.42	-0.58	-0.66	0.86	-0.01	0.18	0.53	-0.42
CSc1ccc2c(c1)N(CCC1CCCCN1C)c1ccccc1S2 (stereo not given) [Thioridazine (hydrochloride)]	1.03	0.66	-0.82	1.54	-0.06	-0.18	-5.09	-8.27	-7.88

(cont.)

Compound	phospho-S6 immunofluorescence (z-score) [1]	phospho-S6 immunofluorescence (z-score) [2]	phospho-S6 immunofluorescence (z-score) [3]	phospho-S6 immunofluorescence (z-score) [4]	phospho-S6 immunofluorescence (z-score) [5]	phospho-S6 immunofluorescence (z-score) [6]	phospho-S6 immunofluorescence (z-score) [7]	phospho-S6 immunofluorescence (z-score) [8]	phospho-S6 immunofluorescence (z-score) [9]
O=C(O)CCc1ccc(NCc2cccc(Oc3ccccc3)c2)cc1	0.73	0.84	1.06	0.71	0.71	0.63	-0.04	0.32	1.24
COC(=O)[C@H]1[C@H]2C[C@H]3c4[nH]c5ccccc5c4CCN3C[C@H]2CC[C@@H]1O [Rauwolscine (hydrochloride)]	0.23	-1.38	0.12	0	-0.67	-0.67	0.42	0.38	-0.22
C[C@@H](O[C@H]1OCCN(Cc2n[nH]c(=O)[nH]2)[C@H]1c1ccc(F)cc1)c1cc(C(F)(F)F)cc(C(F)(F)F)c1 [Aprepitant]	0.66	1.18	0.31	0.64	0.85	0.62	-1.22	-1.02	0.64
COc1cc(C(=O)NCc2ccc(OCCN(C)C)cc2)cc(OC)c1OC [Trimethobenzamide hydrochloride]	0.07	-0.16	-0.46	0.13	-0.34	0.09	0.29	1.09	0.51
O=C(C[S+]([O-])Cc1ccco1)NC/C=C\COc1cc(CN2CCCCC2)ccn1 (stereo not given) [Lafutidine]	0.76	-0.25	-0.22	0.37	-0.3	0	-0.67	0.02	-0.32
COc1ccccc1OCCNCC(O)COc1cccc2[nH]c3ccccc3c12 (stereo not given) [Carvedilol]	-2.06	-0.51	-2.41	-1.62	-0.35	-2.35	-4.07	-4.63	-3.59
CC(C)Cc1ccc([C@@H](C)C(=O)NS(C)(=O)=O)cc1 [Reparixin]	-1.1	-0.28	-1.43	-0.1	-0.83	-0.69	0.03	0.34	-1.14
O=c1ccn([C@@H]2O[C@H](COP(=O)(O)OP(=O)(O)OP(=O)(O)OP(=O)(O)OC[C@H]3O[C@@H](n4ccc(=O)[nH]c4=O)[C@H](O)[C@@H]3O)[C@@H](O)[C@H]2O)c(=O)[nH]1 [Diquafosol (tetrasodium)]	-1.44	-1.16	-1.05	-0.95	1.38	-1.45	0.01	0.71	-0.38
CC(C)OC(=O)N1CCC(Oc2ncnc3c2cnn3-c2ccc(S(C)(=O)=O)cc2F)CC1	-0.12	-0.36	-0.37	0.32	0.05	-0.48	-0.32	-0.15	-0.38
N[C@@H](COP(=O)(O)O)C(=O)O [O-Phospho-L-serine]	-1.22	-2.21	-1.79	-0.35	-0.71	-2.19	0.23	0.05	-0.66
COc1ccc(NS(=O)(=O)c2sc3ccc(Cl)cc3c2C)cc1N1CCNCC1	1.04	1.36	0.62	1.69	0.14	1.48	0.28	-1	0.35
NCCc1c[nH]cn1 [Histamine (phosphate)]	-0.68	0.86	-0.28	1.23	-0.18	-0.15	-0.41	-0.13	0.1
O=C(Nc1cc(Cl)cc(Cl)c1)[C@H]1CCCC[C@H]1C(=O)O	0.34	-0.84	0.75	0.22	-0.22	-1.13	0.83	0.12	0.42
CC(C)(C(=O)O)c1ccc(C(O)CCCN2CCC(C(O)(c3ccccc3)c3ccccc3)CC2)cc1 (stereo not given) [Fexofenadine (hydrochloride)]	0.36	-1.12	-0.52	-0.17	-0.42	-0.93	-0.31	-0.84	-0.42
CN1CCC(=C2c3ccccc3CCc3cccnc32)CC1 [Azatadine (dimaleate)]	0.09	0.78	-0.03	0.94	0.26	0.67	0	0.29	-0.32
COc1ccccc1N1CCN(CC(O)COc2cccc3ccccc23)CC1 (stereo not given) [Naftopidil]	0.85	-0.12	0.13	-0.08	0.21	0.69	-0.13	-0.63	0.64
CC1=C(C)C(=O)C(C(CCCCCC(=O)O)c2ccccc2)=C(C)C1=O (stereo not given) [Seratrodast]	-0.75	-0.43	0.07	-0.7	0.01	0.02	1.01	1.15	0.08
Cc1cc(C(C)(C)C)cc(C)c1CC1=NCCN1 [Xylometazoline (hydrochloride)]	0.54	0.24	0.35	-0.27	-0.26	-0.12	0.43	-0.12	-0.38
COc1ccccc1Oc1c(NS(=O)(=O)c2ccc(C)cn2)nc(-c2ccncc2)nc1OC [Avosentan]	-0.82	-0.36	-0.24	-0.16	-0.15	-1.26	-0.03	-0.67	-0.65
CC(CCc1ccccc1)NCC(O)c1ccc(O)c(C(N)=O)c1 (stereo not given) [Labetalol (hydrochloride)]	1.8	1.36	1.58	2.27	1.39	0.7	0.84	-0.16	0.83
